Measurements as given in PubChem BioAssay AID504834 (National Center for Advancing Translational Sciences (NCATS), 2011).
The campaign covered roughly 320,000 compounds. About 22,000 (6.9%) were called active. Inconclusive means that the source gave no clear call. Such entries were picked first, then a sample of the others. The call rests on the fitted dose curve; in most records, active means well fitted inhibition curve with a large enough effect; inconclusive means small, poorly fitted or top-dose-only effect, or another doubt; inactive means no such curve, though single readings can be large or run the other way. Potencies of inconclusive entries are doubtful fits and often do not repeat.
Potency means the concentration at half of the fitted maximal effect.

Assay: Primary qHTS for delayed death inhibitors of the malarial parasite plastid, 96 hour incubation
Details: P. falciparum luciferase reporter growth; series mostly up to 28.7 µM
Summary of the method: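 Cell-based qHTS: luciferase-tagged P. falciparum in erythrocytes (2% hematocrit, 0.05% parasitemia final) incubated with compounds for 96 hours, 37 C, 5% CO2; luciferase detection reagent then added and luminescence measured.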
In the case of Cc1onc(-c2ccccc2)c1C(=O)N/N=C/c1cccs1, the Potency is reported as inconclusive: 0.0033 µM [inhibitor, full curve, poor fit].
With CCCCCCCCC(=O)Nc1cc(C)ccc1OC the Potency was inconclusive: 9.28 µM [inhibitor, single point].
In the case of CC(=O)NNc1ncnc2c1cnn2-c1ccc(C)c(Cl)c1, the Potency is reported as active: 8.28 µM.
For Cc1nc2ccc(C(=O)N/N=C/c3cc([N+](=O)[O-])ccc3O)cc2[nH]1, the Potency was “inactive”.
With COCCNC(=O)[C@H]1N2C(=O)c3ccccc3C2SC1(C)C (some centres not stated) the Potency was “inactive”.
For O=C(COC(=O)C1CC2C=CC1C2)NCc1ccccc1Cl (configuration not stated), the Potency was “inactive”.
In the case of COc1ccc(S(=O)(=O)N2CCN(C(=O)c3c(C)nn(-c4ccccc4)c3Cl)CC2)cc1, the Potency is reported as active: 4.65 µM.
For O=C(c1cc(-c2ccco2)nn1-c1cccc(Cl)c1)N1CCCCC1, the Potency was inconclusive: 20.8 µM [inhibitor, partial curve, poor fit].
In the case of CC1CN(C(=O)NCc2ccccc2)c2cc(Cl)ccc2O1 (configuration not stated), the Potency is reported as active: 2.62 µM.
In the case of Cc1ccccc1OCC(=O)OCC(=O)NC1CCCCCC1, the Potency is reported as “inactive”.
With Cc1cc(SCC(=O)OCC(=O)NCC2CCCO2)c(C)cc1Br (configuration not stated) the Potency was “inactive”.
For COc1ccc(-c2cc(C(F)(F)F)nc(N3CCOCC3)n2)cc1, the Potency was inconclusive: 9.28 µM [inhibitor, single point].
For O=C(c1ccc2c(c1)OCCO2)N1CCCCC1, the Potency was “inactive”.
With COc1cccc(-c2cc3c(=O)n(-c4ccccc4)c(=S)[nH]c3s2)c1 the Potency was inconclusive: 18.5 µM [inhibitor, single point].
In the case of COc1ccc(NC(=O)c2ccc([N+](=O)[O-])s2)c([N+](=O)[O-])c1, the Potency is reported as inconclusive: 4.15 µM [inhibitor, partial curve, poor fit].
In the case of CCc1ccc(NC(=O)C2CCCN(S(C)(=O)=O)C2)cc1 (configuration not stated), the Potency is reported as inconclusive: 0.928 µM [inhibitor, full curve, poor fit].
With Cc1nc(N2N=C(c3ccc(Cl)cc3)CC2c2ccco2)sc1C(=O)N(C)C (configuration not stated) the Potency was inconclusive: 8.28 µM [inhibitor, partial curve, poor fit].
In the case of CCC(NC(=O)c1ccccc1NC(=O)c1ccc(OC)cc1)C(=O)N1CCCC1 (configuration not stated), the Potency is reported as “inactive”.
With CCN(CC)S(=O)(=O)c1ccc(NN)nc1 the Potency was inconclusive: 18.5 µM [inhibitor, single point].
For COc1ccc(-n2cc(-c3ccccc3)c3c(N4CCN(CCO)CC4)ncnc32)cc1, the Potency was inconclusive: 1.04 µM [inhibitor, partial curve, poor fit].
With O=C(NC(=S)Nc1cccc(O)c1)c1ccco1 the Potency was “inactive”.
With CCN(CC)c1ccc(C2C3CCCCC3(O)CCN2CC(=O)N2CCCCC2)cc1 (configuration not stated) the Potency was inconclusive: 11.7 µM [inhibitor, partial curve, poor fit].
In the case of Fc1cccc(CNCC2CCCO2)c1 (configuration not stated), the Potency is reported as inconclusive: 0.0037 µM [inhibitor, full curve, poor fit].
With Cc1ccc(C)n1-n1cnc2sc3c(c2c1=O)CCCCC3 the Potency was inconclusive: 8.28 µM [inhibitor, partial curve, poor fit].
For CCC(C)C(NC(=O)c1ccccc1NC(=O)c1ccco1)C(=O)NNC(=O)c1ccncc1 (configuration not stated), the Potency was inconclusive: 11.7 µM [inhibitor, single point].
With COc1ccc(C(=O)NCCc2ccccc2)cc1OC the Potency was “inactive”.
In the case of O=C(CSc1nc2ccccc2o1)NCC(=O)c1ccccc1, the Potency is reported as “inactive”.
With COCCCNC(=O)CCCOc1ccccc1 the Potency was “inactive”.
For CN(C)CCSc1nc(N)c2c3c(sc2n1)CN(C)CC3, the Potency was inconclusive: 0.147 µM [inhibitor, full curve, poor fit].
With COCCN=C1Sc2nc3cc(C)c(C)cc3cc2CN1Cc1cccs1 the Potency was inconclusive: 0.0029 µM [inhibitor, full curve, poor fit].
For O=C1CN(C(=O)COC(=O)C2=COCCO2)c2ccccc2N1, the Potency was “inactive”.
In the case of O=C(NCCc1ccccc1)c1cnc2ccccc2n1, the Potency is reported as inconclusive: 4.65 µM [inhibitor, partial curve, poor fit].
With NNC(=O)CNC(c1ccccc1)c1cc(Cl)ccc1NC(=O)c1ccccc1 (configuration not stated) the Potency was “inactive”.
For O=C(Nc1ccc(Nc2ccccc2)cc1)c1cc([N+](=O)[O-])ccc1Cl, the Potency was inconclusive: 18.5 µM [inhibitor, single point].
In the case of Cc1cccc(CNC(=O)c2ccccc2NC(=O)C2=CSCCO2)c1, the Potency is reported as inconclusive: 8.28 µM [inhibitor, partial curve, poor fit].
For COc1ccc(NS(=O)(=O)c2ccc3c(c2)CCCN3C(C)=O)cc1, the Potency was inconclusive: 13.1 µM [inhibitor, single point].
With O=C(CSc1nnc(-c2ccncc2)n1CCc1ccccc1)NCc1ccccc1 the Potency was inconclusive: 5.86 µM [inhibitor, partial curve, poor fit].
With NNc1nc2c(Cl)c(Cl)ccc2s1 the Potency was “inactive”.
For O=C(CN1CCN(S(=O)(=O)c2ccc(Br)cc2)CC1)Nc1ccccc1F, the Potency was “inactive”.
With CO/N=C/CC(=O)c1ccc([N+](=O)[O-])c(CS(=O)(=O)c2ccc(Cl)cc2)c1 the Potency was inconclusive: 1.47 µM [inhibitor, partial curve, poor fit].
With CCC1=C(C)C(N2CCOCC2)=NP(N2CCOCC2)(N2CCOCC2)=N1 the Potency was inconclusive: 13.1 µM [inhibitor, partial curve].
With CCc1ccc(NC(=S)NCc2ccccc2)cc1 the Potency was inconclusive: 18.5 µM [inhibitor, single point].
In the case of Cc1ccc(/C=C2/C(=N)N3N=C(CC(=O)N4CCCC4)SC3=NC2=O)o1, the Potency is reported as inconclusive: 20.8 µM [inhibitor, partial curve, poor fit].
With O=C(NCc1cc(Br)cc(Br)c1OC(=O)c1ccccc1[N+](=O)[O-])c1ccccc1 the Potency was active: 5.22 µM.
For O=C(NN1C(=O)C2C3C=CC(C4CC34)C2C1=O)c1cccc(Cl)c1 (configuration not stated), the Potency was inconclusive: 18.5 µM [inhibitor, single point].
In the case of Cn1c(=O)n(C)c2cc(S(=O)(=O)Nc3cc(Cl)ccc3O)ccc21, the Potency is reported as “inactive”.
In the case of OCCCN1CCN(CCOc2ccccc2-c2ccccc2)CC1, the Potency is reported as active: 10.4 µM.
With O=C(CS(=O)(=O)c1ccc(Cl)cc1)NCc1ccccc1 the Potency was inconclusive: 18.5 µM [inhibitor, single point].
In the case of Cc1ccc(/C=N/NC(=O)Cn2nccc2C)o1, the Potency is reported as “inactive”.
With CCOc1cc(-c2nnn(CC(=O)N3CCCCC3)n2)ccc1OC the Potency was inconclusive: 14.7 µM [inhibitor, single point].
In the case of COc1ccccc1N1CCN(CCCCOc2ccc(C)cc2C)CC1, the Potency is reported as inconclusive: 18.5 µM [inhibitor, single point].
In the case of O=C(Nc1nncs1)c1ccc(N2C(=O)C3C4C=CC(C4)C3C2=O)cc1 (configuration not stated), the Potency is reported as “inactive”.
With O=S(=O)(c1ccc(C2=CSC3=NCCN23)cc1)N1CCOCC1 the Potency was inconclusive: 2.94 µM [inhibitor, full curve].
For CC(=O)Nc1ccc(NC(=O)C2CCN(C(=O)c3ccc([N+](=O)[O-])cc3)CC2)cc1, the Potency was inconclusive: 11.7 µM [inhibitor, partial curve, poor fit].
For O=C(CCS(=O)(=O)c1cc2c(cc1Cl)NC(=O)CO2)NCCc1ccccc1, the Potency was inconclusive: 11.7 µM [inhibitor, single point].
For O=C1CC(c2ccccc2)Oc2cc(O)cc(O)c21 (configuration not stated), the Potency was inconclusive: 3.29 µM [inhibitor, full curve].
For COc1ccccc1S(=O)(=O)Cc1ccc(C(=O)NC2CCCCC2)o1, the Potency was “inactive”.
With CC(=O)c1cccc(NC(=S)NCCCCc2ccccc2)c1 the Potency was active: 9.28 µM.
With O=C(NCCc1ccccc1)c1ccc(OCCOc2ccccc2)cc1 the Potency was inconclusive: 0.294 µM [inhibitor, partial curve, poor fit].
With O=C(c1ccc2c(c1)OCCO2)C1CCN(C(=O)Nc2ccc(F)cc2)CC1 the Potency was inconclusive: 11.7 µM [inhibitor, single point].
In the case of Cc1cccc(C)c1OCC(=O)Nc1ccccc1N1CCCCC1, the Potency is reported as inconclusive: 4.15 µM [inhibitor, partial curve].
In the case of O=C(CC1C(=O)NCCN1Cc1c(F)cccc1Cl)NCCCN1CCCC1=O (configuration not stated), the Potency is reported as inconclusive: 1.85 µM [inhibitor, full curve, poor fit].
For CC(C)=CCN1CCN(Cc2cccc3c2OCO3)CC1CCO (configuration not stated), the Potency was inconclusive: 4.15 µM [inhibitor, full curve, poor fit].
In the case of N#CC(C#N)=Cc1ccc(N2CCCC2)cc1, the Potency is reported as “inactive”.
For CCOC(=O)c1cnc(-c2ccccc2)nc1C(F)(F)F, the Potency was “inactive”.
With C=CCNC(=O)c1ccncc1 the Potency was inconclusive: 18.5 µM [inhibitor, single point].
In the case of COc1ccc(CN2C(=O)NC(=O)/C(=C\c3cccc(OC)c3OC)C2=O)cc1, the Potency is reported as inconclusive: 13.1 µM [inhibitor, single point].
For O=C(Nc1ccc(Br)cc1)c1csc(-c2ccncc2)n1, the Potency was inconclusive: 4.15 µM [inhibitor, single point].
For CC1CN(C(=O)CS(=O)(=O)Cc2ccccc2)CC(C)O1 (configuration not stated), the Potency was inconclusive: 18.5 µM [inhibitor, partial curve, poor fit].
In the case of O=C(Nc1nc2n(n1)C(c1ccccc1)C=C(c1ccccc1)N2)c1ccco1 (configuration not stated), the Potency is reported as inconclusive: 10.4 µM [inhibitor, single point].
For CC(C)CCN(C(=O)c1ccc(N2CCCC2=O)cc1)c1c(N)n(Cc2ccccc2)c(=O)[nH]c1=O, the Potency was inconclusive: 18.5 µM [inhibitor, single point].
With O=C(O)COCC(=O)N1CCc2c([nH]c3ccccc23)C1C(F)(F)F (configuration not stated) the Potency was “inactive”.
